Data taken from ChEMBL document CHEMBL3988442, “University of Dundee, Small-Polar-MMV Screening Library” (2021).

A: 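Whole-cell assay for inhibitors of Mycobacterium tuberculosis growth, labelled Cornell in the record; the read-out is not stated. The concentration is filed as 10 mM, unlikely as a test dose, so the dose is not known. The record gives no direction; compounds strong in two other growth screens of this library score well above the rest, so higher reads as stronger inhibition. About 53,000 compounds were tested under these conditions; 1.7% (about 900) showed 50% or more at least once.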
B: 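Assay on Mycobacterium tuberculosis, filed only as a heat shock assay from Cornell; the read-out is not stated. The concentration is filed as 10 mM, unlikely as a test dose, so the dose is not known. The record gives no direction; compounds that gave an IC50 in retests scored well above the rest, so higher reads as stronger inhibition. Of about 69,000 compounds tested this way, about 930 (1.4%) reached 50% or more in at least one test.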

Each number is a percent effect as filed.
The record does not define 0% and 100%; most values in the screen are far below 50% and negative numbers occur (in some assays of this library far below -100).
This is an unselected part of the compounds tested.
A dash means the value is not listed here; it may have been measured.

| # | structure | A | B |
|---|---|---|---|
| 1 | `Cc1cccc(N2CCc3ncc(CNS(C)(=O)=O)n3CC2)n1.O=C(O)C(F)(F)F` | - | -36.69 |
| 2 | `CC(C)c1nc(CC(=O)Nc2nc(CN3CCCCCC3)cs2)cs1` | - | 104.4 |
| 3 | `Cc1cc(CN2CCC(CNC(=O)c3nccc4ccccc34)C2)[nH]n1` (stereo not shown) | 2.692 | 59.25 |
| 4 | `CSC(C)C(=O)NS(=O)(=O)CCc1ccccc1` (stereo not shown) | 6.567 | -27.7 |
| 5 | `Cc1nn(C)c2c(NCc3ccccn3)ncnc12` | 9.017 | 14.51 |
| 6 | `Cc1ncsc1C(=O)NCCCN1CCCCCC1=O` | 8.039 | -4.316 |
| 7 | `Cc1cc(CN(C)C(C(=O)O)c2ccc(C(C)(C)C)cc2)on1` (stereo not shown) | - | 10.71 |
| 8 | `Cc1cnccc1N1CCN(C(=O)C2CC3(CCNCC3)CN2)CC1` (stereo not shown) | -85.1 | -8.562 |
| 9 | `Cc1ccoc1C(=O)NCC(c1ccccc1Cl)N1CCOCC1` (stereo not shown) | -1.474 | -14.96 |
| 10 | `CN1CCOC(CNCc2coc(-c3cccs3)n2)C1` (stereo not shown) | -36.23 | -10.84 |
| 11 | `CSc1ccc(NC(=O)Cc2cccc(O)c2)nc1` | 12.93 | 11.77 |
| 12 | `O=C(c1cccc(CO)n1)N1CCOC(c2ccc(Cl)c(Cl)c2)C1` (stereo not shown) | 8.268 | 22.14 |
| 13 | `CC(=O)c1cccc(NCC(=O)NC(N)=O)c1` | - | -33.18 |
| 14 | `Cc1nn(C)c2nc(N(CCOc3ccccc3)CC3CCCO3)sc12` (stereo not shown) | 24.17 | -22.98 |
| 15 | `CC(C)(C(=O)O)S(=O)(=O)c1ccc(Br)cc1` | 25.61 | -9.133 |
| 16 | `CN(C(=O)CCc1cccs1)C1CCCN(C2Cc3ccccc3C2)C1` (stereo not shown) | 10.42 | -3.992 |
| 17 | `Cl.O=C1NCCCCC1NCc1csc(-c2ccc(F)cc2)n1` (stereo not shown) | 14.06 | 6.726 |
| 18 | `[H][C@]12CC[C@]([H])(CN(Cc3ccncc3)C1)N(C(=O)CCC1CCCC1)C2` | - | 29.28 |
| 19 | `Cc1nccc(C2CCCN(C(=O)c3cncnc3)C2)n1` (stereo not shown) | 1.781 | -2.738 |
| 20 | `O=C(CNC(=O)Nc1cccc(-c2nccs2)c1)NCCO` | 20.13 | 2.508 |
| 21 | `O=C(CS(=O)(=O)Cc1ccc(F)cc1)NC1CCCCNC1=O` (stereo not shown) | - | 0.4183 |
| 22 | `[H][C@]12CN(C(C)=O)CCN1C(=O)N(Cc1ccc(F)cc1)C2` | - | -6.3 |
| 23 | `Cc1cccc(Cn2nc(C3CCNCC3)n(-c3ccccc3)c2=O)c1` | 7.388 | 15.21 |
| 24 | `COC(=O)c1ccc(N2CCN(C(=O)c3cc(C)on3)C(C)C2)cc1` (stereo not shown) | 18.21 | 10.01 |
| 25 | `Cc1ccc2ncccc2c1CN1CC[C@H](N(C)C)[C@H](CCC(=O)O)C1` | 6.605 | -22.18 |
| 26 | `CCN1CCN(c2ncc(-c3cc(C)no3)c(-c3ccc(C)s3)n2)CC1` | 8.997 | 3.78 |
| 27 | `CCc1cc(C(=O)N2CCC3(CCCN(CC4CC4)C3=O)C2)cs1` (stereo not shown) | 1.27 | 17.58 |
| 28 | `COC(=O)C1CCN(C(=O)c2ccc(NS(C)(=O)=O)c(C)c2)CC1` | -18.77 | -44.22 |
| 29 | `CN(C)CCN1C(=O)CCCC12CCCN(Cc1cccs1)C2.O=C(O)C(F)(F)F.O=C(O)C(F)(F)F` (stereo not shown) | 36.41 | -7.663 |
| 30 | `CC1(C)CN(C(=O)c2occc2COc2cccc(C#N)c2)CCO1` | -6.763 | -19.22 |
| 31 | `COCCN(c1cc(C)nc2nc(C(F)(F)F)nn12)C1CCCC1` | -14.35 | -27.51 |
| 32 | `CCN(CC(C)C#N)C(=O)CSc1ccc(C(F)(F)F)cn1` (stereo not shown) | 13.81 | -34.39 |
| 33 | `Cc1nn(C)c2c(N3CCN(C(=O)C(C)C)CC3)ncnc12` | - | 8.187 |
| 34 | `CCOc1ccccc1CCN1Cc2ncccc2C1=O` | 13.28 | -13.32 |
| 35 | `O=C(O)C(F)(F)F.[H][C@@]12COC[C@@H](C(=O)N3CCCCO3)[C@]1([H])CN(c1ccncn1)C2` | 13.59 | -22.26 |
| 36 | `Cc1nn(C)c(C)c1-c1ccc(=O)n(C(C)C(=O)NC2CC2)n1` (stereo not shown) | 11.69 | -9.774 |
| 37 | `CCCNC(=O)c1ccc(NC(=O)NC(C)c2ccccn2)cc1` (stereo not shown) | - | -4.902 |
| 38 | `CC(=O)c1ccc(OCC(=O)NS(=O)(=O)c2cccnc2)cc1` | - | -33.38 |
| 39 | `CCc1nnc2n1CCN(Cc1ncc(-c3ccccc3)o1)C2` | - | 76.57 |
| 40 | `O=C(Nc1nccs1)C1CCCN1Cc1ccccn1` (stereo not shown) | - | 103.1 |
| 41 | `COCCN1CCc2cc(C(=O)NC(C)C)c(NCC3CC3)nc2CC1.O=C(O)C(F)(F)F.O=C(O)C(F)(F)F` | - | -25.1 |
| 42 | `CN(c1ccc(C(=O)NCCCN2CCCCC2)c(Cl)c1)S(C)(=O)=O` | 8.737 | -21.27 |
| 43 | `CCn1cc(NC(=O)C2CCC(=O)N2Cc2ccc(C)o2)cn1` (stereo not shown) | 35.8 | 4.477 |
| 44 | `CCc1nc(C)c([C@H]2CN(C)C[C@@H]2C(=O)NCCc2cnccn2)[nH]1` | - | 1.516 |
| 45 | `CN(C)C(=O)C1CCN(Cn2ccc(-c3ccc(F)cc3)n2)CC1` | 18.34 | -5.652 |
| 46 | `C1CCC(CNC2CCCN(Cc3noc(C4CC4)n3)C2)C1` (stereo not shown) | - | -12.06 |
| 47 | `CN(C)[C@@H]1CCN(C(=O)Cc2ccc(F)cc2)[C@H]1Cc1cnn(C)c1.O=C(O)C(F)(F)F` | - | 10.95 |
| 48 | `CC(C)c1noc(CS(=O)(=O)CC(=O)NCCOc2ccccc2)n1` | - | 41.58 |
| 49 | `OC(CN1CCCCc2ccccc21)Cn1cccn1` (stereo not shown) | - | -12.88 |
| 50 | `O=C(NCC1CC(=O)N(CCc2ccccc2)C1)c1ccc[nH]1` (stereo not shown) | - | -8.993 |
| 51 | `O=C(c1ccc2c(c1)[nH]c(=O)n2C1CCCC1)N1CCCSCC1` | -15.51 | 29.79 |
| 52 | `Cc1nn(C)cc1S(=O)(=O)NC1(CN2CCOCC2)CCCCC1` | -28.74 | -8.402 |
| 53 | `O=C(NCCn1cc(Cl)cn1)C1CCN(C(=O)C2CC2)CC1` | 2.854 | -1.547 |
| 54 | `CS(=O)(=O)N1CCOCC2(CN(Cc3ccsc3)CCO2)C1.O=C(O)C(F)(F)F` (stereo not shown) | -5.646 | -15.25 |
| 55 | `CN(C)c1ncc2c(n1)CCCC2NC(=O)c1ccsc1` (stereo not shown) | -5.099 | 6.987 |
| 56 | `CS(=O)(=O)NCC1CCCCN1Cc1ccccc1C#N` (stereo not shown) | 19.89 | -5.634 |
| 57 | `CC(C)NS(=O)(=O)c1cc(C(=O)O)cc(-c2ccccc2CN(C)C)c1` | 12.03 | -11.97 |
| 58 | `Fc1ccc([C@@H]2COC[C@H]2NCc2cccc(F)c2)cc1.O=C(O)CC(O)(CC(=O)O)C(=O)O` | 12.54 | 0.06944 |

6 of the entries, repeated:

| structure | A | B |
|---|---|---|
| `CCN1CCN(c2ncc(-c3cc(C)no3)c(-c3ccc(C)s3)n2)CC1` | 8.997 | 3.78 |
| `CN(C)CCN1C(=O)CCCC12CCCN(Cc1cccs1)C2.O=C(O)C(F)(F)F.O=C(O)C(F)(F)F` (stereo not shown) | 36.41 | -7.663 |
| `COCCN(c1cc(C)nc2nc(C(F)(F)F)nn12)C1CCCC1` | -14.35 | -27.51 |
| `CN(c1ccc(C(=O)NCCCN2CCCCC2)c(Cl)c1)S(C)(=O)=O` | 8.737 | -21.27 |
| `CCOc1ccccc1CCN1Cc2ncccc2C1=O` | 13.28 | -13.32 |
| `O=C(c1cccc(CO)n1)N1CCOC(c2ccc(Cl)c(Cl)c2)C1` (stereo not shown) | 8.268 | 22.14 |